Earlier results, collected in US6362394B1, “Juvenile hormone or one of its agonists as a chemical ligand to control gene expression in plants by receptor mediated transactivation” (Syngenta Participations AG, priority 1995, dated 2002).
For at least one compound, name, drawing or mass did not settle the structure.

Columns and labels:
[1] = molecular target: T1, USP gene product (Drosophila melanogaster, UniProt P20153); conditions: cultured mammalian cell lines; cited from earlier work
T1 construct: host or cells: cultured mammalian cell lines (as reported by Harmon et al.)
T1 sequence (P20153 1-508): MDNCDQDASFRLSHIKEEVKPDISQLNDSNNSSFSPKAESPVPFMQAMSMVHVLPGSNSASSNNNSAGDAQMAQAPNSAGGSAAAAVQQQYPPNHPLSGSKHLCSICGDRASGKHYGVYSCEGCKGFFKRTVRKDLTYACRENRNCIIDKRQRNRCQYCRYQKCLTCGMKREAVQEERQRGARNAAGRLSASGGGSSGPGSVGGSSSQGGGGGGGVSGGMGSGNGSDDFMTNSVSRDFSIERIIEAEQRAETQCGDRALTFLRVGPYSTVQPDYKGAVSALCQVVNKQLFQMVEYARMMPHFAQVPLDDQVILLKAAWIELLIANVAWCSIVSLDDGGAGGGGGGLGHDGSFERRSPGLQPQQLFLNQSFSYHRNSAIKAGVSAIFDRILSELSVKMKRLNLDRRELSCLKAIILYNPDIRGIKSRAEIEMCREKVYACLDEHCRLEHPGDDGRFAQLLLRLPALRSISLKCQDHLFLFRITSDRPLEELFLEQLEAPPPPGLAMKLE

[2] = molecular target: T2, USP (Drosophila melanogaster, UniProt P20153); conditions: Drosophila cell-culture assays; conditions in which RXR is responsive; cited from earlier work
T2 construct: host or cells: Drosophila cell culture (as reported by Oro et al. and Harmon et al.)
T2 sequence (P20153 1-508): T1 sequence (P20153 1-508)

CC1=C(/C=C/C(C)=C/C=C/C(C)=C/C(=O)O)C(C)(C)CCC1 [Retinoic acid]
Activation of heterologously-expressed USP gene product [1]: activate | Activation / response of USP [2]: not activated
